Assay results taken from PMC4189786.
The exact form of at least one protein or probe is not confirmed. A negative result means that nothing was seen under these conditions.

System: serum albumin (HSA in Results and figures + Methods state purchased bovine serum albumin, Sigma A7030)
Experiment: UV absorbance titration
Conditions: off-target, 6 uM albumin in phosphate buffer (10 mM) pH 7.4, 37 C, excitation 290 nm, emission 300-400 nm, 90 s after each aptamer addition, commercial protein, single-stranded DNA

| Sequence | binding result (6 nm shift, suggested no complex, dynamic quenching) | binding result (20 nm shift, suggested ground-state complex, static quenching) |
| --- | --- | --- |
| ACTTTTGAATGTGGCAACAAATTCGACAGG [1.5 M Short] | no binding |  |
| GGGAGACAAGAATAAACGCTCAAATGGACTTTTGAATGTGGCAACAAATTCGACAGGAGGCTCACAACAGGC [1.5 M Long] |  | binds |
